The other results are listed elsewhere or left out.
Molecular target: T1, OsSMF1 (Oryza sativa, UniProt Q6ZLB0 1-436)
T1 sequence: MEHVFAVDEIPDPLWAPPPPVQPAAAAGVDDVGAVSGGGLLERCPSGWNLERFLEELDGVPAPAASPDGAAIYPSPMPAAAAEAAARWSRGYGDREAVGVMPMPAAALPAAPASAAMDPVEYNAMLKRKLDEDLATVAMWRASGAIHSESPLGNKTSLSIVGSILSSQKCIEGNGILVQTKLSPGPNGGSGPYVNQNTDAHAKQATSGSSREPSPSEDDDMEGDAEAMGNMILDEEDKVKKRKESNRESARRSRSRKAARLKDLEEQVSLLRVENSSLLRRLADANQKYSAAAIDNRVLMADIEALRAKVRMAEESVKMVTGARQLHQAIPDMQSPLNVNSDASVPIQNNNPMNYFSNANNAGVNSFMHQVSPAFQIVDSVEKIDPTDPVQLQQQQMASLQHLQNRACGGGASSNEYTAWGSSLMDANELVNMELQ
Experiment: protein-binding microarray (RPBM); PBS, 2% BSA, 51.3 ng/ul salmon testes DNA, 50 uM zinc acetate, 200 nM TF, 25 C, 1 h; high values mean tight binding
Settings: protein: recombinant; tags: N-terminal polyhistidine and DsRed monomer fusion (pET32a); chain copies: 2; label: CyDye5-dUTP incorporated in the synthesized complementary strand; 3' TTTTT single-stranded linker to array surface; dsDNA, one strand shown
In short: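 Binding signal here means per-feature fluorescence intensity in arbitrary units. The values were read on an Axon 4000B scanner after a custom Agilent array, double-stranded by primer extension with Cy5-dUTP, was incubated with 200 nM protein at 25 °C for 1 h in PBS with 2% BSA, salmon testes DNA and 50 µM zinc acetate, then washed. The proteins were transcription factors with an N-terminal polyhistidine tag and DsRed, expressed in E. coli BL21-CodonPlus and purified on Ni–NTA.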

Sequence | binding signal
ATTAATTAGCTAGTGCGCCCCTGCCTGCTCATGAGTCATGCGGAGTCACCTAGTGCAG | 10600 fluorescence intensity (a.u.)
GATCCACCCACGCATCGATTCGCTGGACGTACGCCACATTCGGAGTCACCTAGTGCAG | 3540 fluorescence intensity (a.u.)
GAGAGGCGAAGCTCGGGGACACGTGAACACATCGGCTTTTCGGAGTCACCTAGTGCAG | 3490 fluorescence intensity (a.u.)
CAGTGACTAGTGACAAACGATCGATCGATCCCTCCATCCACGGAGTCACCTAGTGCAG | 4780 fluorescence intensity (a.u.)
GCGGTTTCGTCCGACGTGGCGTCATTGACCCGGTTGACGACGGAGTCACCTAGTGCAG | 13000 fluorescence intensity (a.u.)
TGAAGAGATCCAACAAAGTTCAAATTGACAAAGCACATTCCGGAGTCACCTAGTGCAG | 3180 fluorescence intensity (a.u.)
TTGCCAGTGGCACACGTATCTCACCACATGCCACTGCATTCGGAGTCACCTAGTGCAG | 3620 fluorescence intensity (a.u.)
GAACATGTATGAATGCGTGCATCCACTGGTGCATGCAGCACGGAGTCACCTAGTGCAG | 3140 fluorescence intensity (a.u.)
CACAAATGAAGAAACAAGGTGTTGCATCACCAGTCATGGGCGGAGTCACCTAGTGCAG | 6740 fluorescence intensity (a.u.)
GTACCCCTCACGGTAAGCCCGGTAACCGCGCGGTTACCGGCGGAGTCACCTAGTGCAG | 22900 fluorescence intensity (a.u.)
AGACCAAGTAGTACCACCACTTCGTAGCCCAAATCAAACGCGGAGTCACCTAGTGCAG | 3190 fluorescence intensity (a.u.)
CTCGTCTCTCGGTCTCGTTCCCGTACACGTCGCGATGTGACGGAGTCACCTAGTGCAG | 4420 fluorescence intensity (a.u.)
CCTCCGGCGCTCACGGCGACGATGTGGCGACTCTCGGCGGCGGAGTCACCTAGTGCAG | 3380 fluorescence intensity (a.u.)
TGTATGTATGACATGTGGGACTAGATATTAATTTTGTAGTCGGAGTCACCTAGTGCAG | 5090 fluorescence intensity (a.u.)
TCCTGCCAATCTGTAACGACAGTGGCCGATACAATCGTCCCGGAGTCACCTAGTGCAG | 3750 fluorescence intensity (a.u.)
TTACTGTTTCCAACACTGTTGAGTAACCACGTCCTTCGACCGGAGTCACCTAGTGCAG | 3610 fluorescence intensity (a.u.)
TAGGATGCCACATCCTCATCCTTGATGGAACAACCACGTTCGGAGTCACCTAGTGCAG | 5890 fluorescence intensity (a.u.)
GTGCTCATTTAATTGCTAAGATACACGTTTGCTAGTGCATCGGAGTCACCTAGTGCAG | 3780 fluorescence intensity (a.u.)
GTGAGATGTTGCTTGGAGCATGCTGCGTCGGTGGCGAAAACGGAGTCACCTAGTGCAG | 3920 fluorescence intensity (a.u.)
AAATACCCACGTCACCACGTGAAGTGACGTCAGGTGGCCGCGGAGTCACCTAGTGCAG | 17700 fluorescence intensity (a.u.)
TCGGAGGGGCAAAGCGATTTCATTGTCATCATCGATATTTCGGAGTCACCTAGTGCAG | 3220 fluorescence intensity (a.u.)
CCGCCTGTGCCACTCTCCACGCGCGACACGTGTCCAGTCGCGGAGTCACCTAGTGCAG | 18300 fluorescence intensity (a.u.)
CTAGCATTTAGCACGACTTCACGGATCTTTAGCTAGGTCACGGAGTCACCTAGTGCAG | 3210 fluorescence intensity (a.u.)
ATGTGGGTCCCACGCTGACTCAGTCGCCATGTCGGACAAACGGAGTCACCTAGTGCAG | 5760 fluorescence intensity (a.u.)
GTTGGTTCTTGCAAGTTGGAGAGCTGATCCTATATAAAGCCGGAGTCACCTAGTGCAG | 14700 fluorescence intensity (a.u.)
ACCTCCACCTCCACCTCCCTCCCCGTCCCCGTCGTCAGCGCGGAGTCACCTAGTGCAG | 3650 fluorescence intensity (a.u.)
AGAGTTCGAAGGCTAACCGACATATACTGATCCCAACAAGCGGAGTCACCTAGTGCAG | 3260 fluorescence intensity (a.u.)

Sequence | binding signal
ACAACTAGTCCTCAGCCTAGCTTTGGTCGATGGTCATGATCGGAGTCACCTAGTGCAG | 4400 fluorescence intensity (a.u.)
CCCATTTGCTGGTGTTTTAGCCACTCGTCGTATCACAACACGGAGTCACCTAGTGCAG | 21100 fluorescence intensity (a.u.)
TTGGATTCAAATTGCCACATAAGCTCCACGTCAAATGCCACGGAGTCACCTAGTGCAG | 21300 fluorescence intensity (a.u.)
AACATGTTAGTGGGTTATGTATGGCTAAGCGACTCTATAACGGAGTCACCTAGTGCAG | 22100 fluorescence intensity (a.u.)
GAAGTATACTTTATTATCCGCACTGCTCACGTGGTGGCTACGGAGTCACCTAGTGCAG | 4750 fluorescence intensity (a.u.)
AGGCATAGGCATAGGCATGGCCAGCCAGCCGCGTCGACGTCGGAGTCACCTAGTGCAG | 3260 fluorescence intensity (a.u.)
AGAGAGAGGGGAGAGGGGTGGAAGGGGAATATGGTAGCTGCGGAGTCACCTAGTGCAG | 3330 fluorescence intensity (a.u.)
AAGGAGGCAGCACCGATCCAAACGGCCCGCGTGGCGTTCGCGGAGTCACCTAGTGCAG | 4120 fluorescence intensity (a.u.)
CGCCCAGGCCTTCGCAGTGCTGACTCAATAGCATCCACCCCGGAGTCACCTAGTGCAG | 7440 fluorescence intensity (a.u.)
GCCCTGGACGCGGGCGTGGGCGTGGCGGAACCAGAGCTCCCGGAGTCACCTAGTGCAG | 4290 fluorescence intensity (a.u.)
TGGCCACATATGCCACCTAGTTTAAATCAACTTGGGCAAACGGAGTCACCTAGTGCAG | 3150 fluorescence intensity (a.u.)
GAATGCTACGAATGACGCTGCACGGCGCGTGTTCTCATTTCGGAGTCACCTAGTGCAG | 3510 fluorescence intensity (a.u.)
GGCCCGAATGTATTGCGGCCTACGTGTGGGGCCGTACTTACGGAGTCACCTAGTGCAG | 3490 fluorescence intensity (a.u.)
CCTATGTAGTACAGTGGTAGTAGAATATCCACGGTTTTATCGGAGTCACCTAGTGCAG | 6670 fluorescence intensity (a.u.)
ATGTGTGTGTGATATGCTGATGTAACTATCAGGTATGCACCGGAGTCACCTAGTGCAG | 3700 fluorescence intensity (a.u.)
GGGTGGGTGATCTATCGATACAATGCATGCGTGGGCTTCTCGGAGTCACCTAGTGCAG | 3900 fluorescence intensity (a.u.)
CCCATGCGAGGCGTACGTGCGGTGCGGTGTTCAGACTCTCCGGAGTCACCTAGTGCAG | 3300 fluorescence intensity (a.u.)
GTTTTGCTTAGAGGATGTCTCCAGTTTTGTTGTGTGTCACCGGAGTCACCTAGTGCAG | 3950 fluorescence intensity (a.u.)
TCCCGGCAGTTCTTACCCTGCATCATCAGAGTGGTCATTACGGAGTCACCTAGTGCAG | 4260 fluorescence intensity (a.u.)
CGGCGACGACCTTCAGCGATGTTTTGTCACTGTCCCCGGCCGGAGTCACCTAGTGCAG | 3680 fluorescence intensity (a.u.)
CGGCGCGTGCGCCACCGCAGCGGCGCCATCGCCGTCGCCGCGGAGTCACCTAGTGCAG | 4120 fluorescence intensity (a.u.)
GTCCCCGGCCTCGGCGCGCGGCGAGCACCGTGCCGCCCCACGGAGTCACCTAGTGCAG | 24000 fluorescence intensity (a.u.)
ACTGTTTAGTAGTTCAGAAACTCTAGGAAGTGAAGGTTGACGGAGTCACCTAGTGCAG | 28300 fluorescence intensity (a.u.)
CCCAACATTGTGGGGCCCACATGTCAGTGTGAGGGACCACCGGAGTCACCTAGTGCAG | 4410 fluorescence intensity (a.u.)
CAATCAGACACATCACACGGTCTACCAAACCTACAAACCGCGGAGTCACCTAGTGCAG | 13800 fluorescence intensity (a.u.)
TTCTATGTTTAATACTTCAAATATGTGTCCGTATATTTCACGGAGTCACCTAGTGCAG | 3480 fluorescence intensity (a.u.)
CCATGTTCTTCCTCCTCCACCACCTCCACTGCTACATATCCGGAGTCACCTAGTGCAG | 3570 fluorescence intensity (a.u.)

A second format for some results above:
Sequence,binding signal
ACAACTAGTCCTCAGCCTAGCTTTGGTCGATGGTCATGATCGGAGTCACCTAGTGCAG,4400 fluorescence intensity (a.u.)
TTGGATTCAAATTGCCACATAAGCTCCACGTCAAATGCCACGGAGTCACCTAGTGCAG,21300 fluorescence intensity (a.u.)
AACATGTTAGTGGGTTATGTATGGCTAAGCGACTCTATAACGGAGTCACCTAGTGCAG,22100 fluorescence intensity (a.u.)
GAAGTATACTTTATTATCCGCACTGCTCACGTGGTGGCTACGGAGTCACCTAGTGCAG,4750 fluorescence intensity (a.u.)
AGAGAGAGGGGAGAGGGGTGGAAGGGGAATATGGTAGCTGCGGAGTCACCTAGTGCAG,3330 fluorescence intensity (a.u.)
GCCCTGGACGCGGGCGTGGGCGTGGCGGAACCAGAGCTCCCGGAGTCACCTAGTGCAG,4290 fluorescence intensity (a.u.)
TGGCCACATATGCCACCTAGTTTAAATCAACTTGGGCAAACGGAGTCACCTAGTGCAG,3150 fluorescence intensity (a.u.)
GAATGCTACGAATGACGCTGCACGGCGCGTGTTCTCATTTCGGAGTCACCTAGTGCAG,3510 fluorescence intensity (a.u.)
GGCCCGAATGTATTGCGGCCTACGTGTGGGGCCGTACTTACGGAGTCACCTAGTGCAG,3490 fluorescence intensity (a.u.)
GGGTGGGTGATCTATCGATACAATGCATGCGTGGGCTTCTCGGAGTCACCTAGTGCAG,3900 fluorescence intensity (a.u.)
TCCCGGCAGTTCTTACCCTGCATCATCAGAGTGGTCATTACGGAGTCACCTAGTGCAG,4260 fluorescence intensity (a.u.)
CGGCGCGTGCGCCACCGCAGCGGCGCCATCGCCGTCGCCGCGGAGTCACCTAGTGCAG,4120 fluorescence intensity (a.u.)
GTCCCCGGCCTCGGCGCGCGGCGAGCACCGTGCCGCCCCACGGAGTCACCTAGTGCAG,24000 fluorescence intensity (a.u.)
CCCAACATTGTGGGGCCCACATGTCAGTGTGAGGGACCACCGGAGTCACCTAGTGCAG,4410 fluorescence intensity (a.u.)
